In assay [1] the target is full-length SAF-A Walker B mutant, FLAG-tagged and T7-tagged copies (Flp-In T-REx 293) (human) (UniProt Q00839). Briefly: proximity ligation; Duolink in situ PLA with anti-FLAG and anti-T7 in Flp-In T-REx 293 cells depleted of endogenous SAF-A, expressing FLAG-tagged and T7-tagged SAF-A; also after α-amanitin for 5 hr (number of signals significantly decreased).
Assay [2] deals with full-length wild-type SAF-A, FLAG-tagged and T7-tagged copies (Flp-In T-REx 293) (human) (UniProt Q00839). The assay is described as above.

By UniProt entry, the sequences of proteins in these tests, tags left out. Where a name states a change or a piece, a line headed by the entry shows the natural chain unless it says otherwise. Chains listed by the source or under a name are the forms on record and can include a tag or linker.
full-length SAF-A Walker B mutant, FLAG-tagged and T7-tagged copies (Flp-In T-REx 293) (Q00839-2, form named): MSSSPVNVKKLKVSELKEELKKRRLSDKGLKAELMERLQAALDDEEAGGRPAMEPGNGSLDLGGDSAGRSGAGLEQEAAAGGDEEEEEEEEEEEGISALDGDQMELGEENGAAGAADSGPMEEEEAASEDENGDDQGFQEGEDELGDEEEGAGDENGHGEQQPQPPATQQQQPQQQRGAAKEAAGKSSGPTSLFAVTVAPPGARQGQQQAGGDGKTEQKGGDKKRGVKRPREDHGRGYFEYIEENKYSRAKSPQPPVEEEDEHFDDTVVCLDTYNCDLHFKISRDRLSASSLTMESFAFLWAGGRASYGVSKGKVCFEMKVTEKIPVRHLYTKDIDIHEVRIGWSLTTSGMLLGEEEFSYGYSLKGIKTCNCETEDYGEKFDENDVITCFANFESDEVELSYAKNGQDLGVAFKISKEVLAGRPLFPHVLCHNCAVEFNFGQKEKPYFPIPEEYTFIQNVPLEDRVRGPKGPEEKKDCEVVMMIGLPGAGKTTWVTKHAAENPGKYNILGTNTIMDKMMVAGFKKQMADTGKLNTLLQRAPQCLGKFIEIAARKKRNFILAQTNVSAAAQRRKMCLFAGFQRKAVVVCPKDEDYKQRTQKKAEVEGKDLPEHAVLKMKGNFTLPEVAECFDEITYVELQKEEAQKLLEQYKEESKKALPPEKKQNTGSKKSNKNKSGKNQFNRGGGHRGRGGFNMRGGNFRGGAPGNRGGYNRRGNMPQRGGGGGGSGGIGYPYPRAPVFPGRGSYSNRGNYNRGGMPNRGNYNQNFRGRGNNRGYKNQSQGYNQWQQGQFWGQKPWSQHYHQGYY
full-length wild-type SAF-A, FLAG-tagged and T7-tagged copies (Flp-In T-REx 293) (Q00839-2, form named): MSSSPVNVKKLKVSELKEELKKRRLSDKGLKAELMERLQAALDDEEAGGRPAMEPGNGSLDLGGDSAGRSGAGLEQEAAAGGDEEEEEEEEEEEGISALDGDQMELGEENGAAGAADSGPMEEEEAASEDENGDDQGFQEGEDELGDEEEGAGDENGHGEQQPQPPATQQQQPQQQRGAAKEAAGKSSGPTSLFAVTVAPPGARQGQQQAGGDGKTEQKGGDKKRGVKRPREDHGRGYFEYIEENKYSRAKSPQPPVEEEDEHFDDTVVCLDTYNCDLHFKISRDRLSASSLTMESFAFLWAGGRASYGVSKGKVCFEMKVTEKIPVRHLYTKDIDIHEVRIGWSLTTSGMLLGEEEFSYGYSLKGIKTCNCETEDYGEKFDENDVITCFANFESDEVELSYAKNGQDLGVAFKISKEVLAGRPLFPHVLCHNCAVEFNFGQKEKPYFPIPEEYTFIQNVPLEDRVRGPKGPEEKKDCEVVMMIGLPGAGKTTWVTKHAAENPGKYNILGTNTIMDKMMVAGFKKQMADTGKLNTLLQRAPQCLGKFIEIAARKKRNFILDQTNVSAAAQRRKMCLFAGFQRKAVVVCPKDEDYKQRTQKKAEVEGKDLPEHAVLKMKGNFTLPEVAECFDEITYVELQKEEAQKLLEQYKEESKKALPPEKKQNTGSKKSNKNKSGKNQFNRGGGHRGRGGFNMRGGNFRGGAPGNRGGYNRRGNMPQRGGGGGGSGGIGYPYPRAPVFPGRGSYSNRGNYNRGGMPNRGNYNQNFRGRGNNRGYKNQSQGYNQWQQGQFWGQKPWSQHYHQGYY

These results are taken from paper PMC5473940, “SAF-A Regulates Interphase Chromosome Structure through Oligomerization with Chromatin-Associated RNAs” (Cell, 2017).

Results are given in words; binding and its absence hold for the method and conditions named. In cells and extracts the contact can be indirect. Some results given as binding are weak or reduced against the parent protein; the word gives no strength.

As to “full-length SAF-A Walker B mutant, FLAG-tagged and T7-tagged copies (Flp-In T-REx 293) (from UniProt Q00839-2 1-806)”, the binding entry in assay [1] is recorded as “binds”. For the substance “full-length wild-type SAF-A, FLAG-tagged and T7-tagged copies (Flp-In T-REx 293) (from UniProt Q00839-2 1-806)”, the binding entry in assay [2] is reported as “binds”.
